One substance from article PMC7596241 can be followed below.

Amino acid sequences for entries named in this document (tags omitted).
UniProt P42684: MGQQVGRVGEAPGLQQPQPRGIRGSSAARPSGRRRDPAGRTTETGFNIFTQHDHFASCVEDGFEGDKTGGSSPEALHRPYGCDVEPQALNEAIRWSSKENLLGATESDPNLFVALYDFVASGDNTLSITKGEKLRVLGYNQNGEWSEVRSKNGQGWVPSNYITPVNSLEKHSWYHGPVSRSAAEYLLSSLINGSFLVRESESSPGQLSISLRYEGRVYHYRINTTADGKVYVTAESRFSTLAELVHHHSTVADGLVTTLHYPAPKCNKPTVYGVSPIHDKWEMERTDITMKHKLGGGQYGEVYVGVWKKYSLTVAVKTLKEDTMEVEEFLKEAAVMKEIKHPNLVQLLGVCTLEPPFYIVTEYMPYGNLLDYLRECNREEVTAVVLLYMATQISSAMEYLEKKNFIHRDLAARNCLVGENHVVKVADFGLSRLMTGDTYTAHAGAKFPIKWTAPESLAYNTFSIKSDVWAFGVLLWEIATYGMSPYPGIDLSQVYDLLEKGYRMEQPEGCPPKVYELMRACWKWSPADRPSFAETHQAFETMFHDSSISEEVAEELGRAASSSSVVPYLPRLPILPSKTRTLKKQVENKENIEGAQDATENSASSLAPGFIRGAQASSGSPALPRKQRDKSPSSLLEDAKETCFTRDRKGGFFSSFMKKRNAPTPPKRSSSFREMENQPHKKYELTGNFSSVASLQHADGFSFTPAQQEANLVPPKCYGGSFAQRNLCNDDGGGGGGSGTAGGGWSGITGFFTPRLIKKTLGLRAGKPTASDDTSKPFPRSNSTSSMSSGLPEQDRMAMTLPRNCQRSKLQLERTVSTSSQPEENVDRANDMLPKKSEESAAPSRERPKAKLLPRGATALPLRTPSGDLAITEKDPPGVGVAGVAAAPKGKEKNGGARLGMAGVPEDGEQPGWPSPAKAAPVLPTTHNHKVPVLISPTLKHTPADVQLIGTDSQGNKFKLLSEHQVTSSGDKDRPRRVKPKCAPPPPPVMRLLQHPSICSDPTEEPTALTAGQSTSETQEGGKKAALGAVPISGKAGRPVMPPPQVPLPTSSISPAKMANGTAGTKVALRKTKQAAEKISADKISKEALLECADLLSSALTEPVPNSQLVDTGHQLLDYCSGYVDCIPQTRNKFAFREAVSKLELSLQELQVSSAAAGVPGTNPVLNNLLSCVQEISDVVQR

Test [1] addresses ABL2 (human (endogenous in melanoma cells)) (UniProt P42684). The test is described as follows: co-IP; endogenous ABL2 immunoprecipitated with an ABL2 antibody (inefficient); blots; Supplementary Fig. 6i.
In test [2] the target is ABL1 (human (endogenous in M14-BMR)) (UniProt P00519). The test is described as follows: co-IP; endogenous ABL1 immunoprecipitated (agarose-conjugated antibody, 3 h) from M14-BMR cells treated with D/T (100/20 nM), also with D/T + nilotinib (2.5 uM); TNEN buffer (50 mM Tris pH 7.5, 50 mM NaCl, 2 mM EDTA, 0.5% NP-40); rabbit IgG as isotype control; blots.

No constants are given. Whether binding was seen depends on the method and setting. In cells and extracts the contact can be indirect. Some results given as binding are weak or reduced against the parent protein; the word gives no strength.

Regarding CRAF (from UniProt P04049 1-648), the binding result in test [1] and in test [2] was “binds” in each case.
